These are yes or no findings as the source states them, for the method shown.
T1: scrambled FARB peptide
T1 sequence (peptide): EGEIESELSEDDR

Amino acid sequences for entries named in this document (tags omitted). Residues count along the entry.
UniProt Q9UKL3, residues 903-943: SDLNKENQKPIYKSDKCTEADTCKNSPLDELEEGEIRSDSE

T2: NCBP3^1–282 (human) (UniProt Q53F19)
T2 sequence: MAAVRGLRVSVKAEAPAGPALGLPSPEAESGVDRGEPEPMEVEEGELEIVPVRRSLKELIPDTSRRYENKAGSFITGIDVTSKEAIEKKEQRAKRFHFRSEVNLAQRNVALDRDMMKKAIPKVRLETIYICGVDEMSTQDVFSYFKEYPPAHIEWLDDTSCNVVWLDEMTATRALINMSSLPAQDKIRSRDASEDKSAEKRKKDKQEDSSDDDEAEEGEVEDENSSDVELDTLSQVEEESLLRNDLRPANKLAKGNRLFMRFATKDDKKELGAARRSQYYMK

T3: FARB (FLASH–ARS2-binding region) peptide of FLASH, residues 931–943
T3 sequence (peptide): DELEEGEIRSDSE


Assays:
[1] = target: T1, scrambled FARB peptide; test: ITC; MicroCal ITC200, 25 °C, ARS2 constructs with FLASH peptides; high salt (HS): buffer containing 250 mM NaCl; single-site fit; which partner was injected is not told; both purified
[2] = target: T2, NCBP3^1–282 (human); test: ITC; MicroCal ITC200, 25 °C, ARS2 constructs with NCBP3 1–282; buffer containing 250 mM NaCl; injections of 2.5 µL; both purified
[3] = target: T2, NCBP3^1–282 (human); test: pull-down; purified recombinant NCBP3 constructs immobilised on m7GTP sepharose, incubated with CBP80 and/or wild type or mutant ARS2; eluted fractions on Coomassie-stained SDS-PAGE; both purified
[4] = target: T3, FARB (FLASH–ARS2-binding region) peptide of FLASH, residues 931–943; test: ITC; MicroCal ITC200, 25 °C, ARS2 constructs with FLASH peptides; high salt (HS): buffer containing 250 mM NaCl; single-site fit; which partner was injected is not told; both purified
[5] = target: GST–FLASH^903–943 (UniProt Q9UKL3); test: pull-down; GST–FLASH 903–943 (or GST as control) immobilised on glutathione sepharose, incubated with purified ARS2 constructs 30 min at 10 °C; flow-through, wash and elution on Coomassie-stained SDS-PAGE; both purified

| binding [1] | binding [2] | binding [3] | binding [4] | binding [5] | Binder |
| --- | --- | --- | --- | --- | --- |
| no binding |  |  |  |  | ARS2^147–871 (domain or fragment, UniProt Q9BXP5-4 147-871) PVMKTFKEFLLSLDDSVDETEAVKRYNDYKLDFRRQQMQDFFLAHKDEEWFRSKYHPDEVGKRRQEARGALQNRLRVFLSLMETGWFDNLLLDIDKADAIVKMLDAAVIKMEGGTENDLRILEQEEEEEQAGKPGEPSKKEEGRAGAGLGDGERKTNDKDEKKEDGKQAENDSSNDDKTKKSEGDGDKEEKKEDSEKEAKKSSKKRNRKHSGDDSFDEGSVSESESESESGQAEEEKEEAEALKEKEKPKEEEWEKPKDAAGLECKPRPLHKTCSLFMRNIAPNISRAEIISLCKRYPGFMRVALSEPQPERRFFRRGWVTFDRSVNIKEICWNLQNIRLRECELSPGVNRDLTRRVRNINGITQHKQIVRNDIKLAAKLIHTLDDRTQLWASEPGTPPLPTSLPSQNPILKNITDYLIEEVSAEEEELLGSSGGAPPEEPPKEGNPAEINVERDEKLIKVLDKLLLYLRIVHSLDYYNTCEYPNEDEMPNRCGIIHVRGPMPPNRISHGEVLEWQKTFEEKLTPLLSVRESLSEEEAQKMGRKDPEQEVEKFVTSNTQELGKDKWLCPLSGKKFKGPEFVRKHIFNKHAEKIEEVKKEVAFFNNFLTDAKRPALPEIKPAQPPGPAQSLTPGLPYPHQTPQGLMPYGQPRPPILGYGAGAVRPAVPTGGPPYPHAPYGAGRGNYDAFRGQGGYPGKPRNRMVRGDPRAIVEYRDLDAPDDVDFF |
|  | no binding | no binding | no binding | no binding | ARS2^(147–871 K719A K722A K734A) (domain or fragment, UniProt Q9BXP5-4 147-871) PVMKTFKEFLLSLDDSVDETEAVKRYNDYKLDFRRQQMQDFFLAHKDEEWFRSKYHPDEVGKRRQEARGALQNRLRVFLSLMETGWFDNLLLDIDKADAIVKMLDAAVIKMEGGTENDLRILEQEEEEEQAGKPGEPSKKEEGRAGAGLGDGERKTNDKDEKKEDGKQAENDSSNDDKTKKSEGDGDKEEKKEDSEKEAKKSSKKRNRKHSGDDSFDEGSVSESESESESGQAEEEKEEAEALKEKEKPKEEEWEKPKDAAGLECKPRPLHKTCSLFMRNIAPNISRAEIISLCKRYPGFMRVALSEPQPERRFFRRGWVTFDRSVNIKEICWNLQNIRLRECELSPGVNRDLTRRVRNINGITQHKQIVRNDIKLAAKLIHTLDDRTQLWASEPGTPPLPTSLPSQNPILKNITDYLIEEVSAEEEELLGSSGGAPPEEPPKEGNPAEINVERDEKLIKVLDKLLLYLRIVHSLDYYNTCEYPNEDEMPNRCGIIHVRGPMPPNRISHGEVLEWQKTFEEKLTPLLSVRESLSEEEAQKMGRKDPEQEVEKFVTSNTQELGKDKWLCPLSGAKFAGPEFVRKHIFNAHAEKIEEVKKEVAFFNNFLTDAKRPALPEIKPAQPPGPAQSLTPGLPYPHQTPQGLMPYGQPRPPILGYGAGAVRPAVPTGGPPYPHAPYGAGRGNYDAFRGQGGYPGKPRNRMVRGDPRAIVEYRDLDAPDDVDFF |

Source: publication PMC5923425, “Structural analysis of human ARS2 as a platform for co-transcriptional RNA sorting” (Nature Communications, 2018)
